Reference: the supplement of paper PMC10849652
This is one part of the list.

Protein sequences, listed by entry. Tags and fused reporters are not part of them. Lines headed by an entry give the natural chain unless they say otherwise; changes in a name come on top.
UniProt P26196: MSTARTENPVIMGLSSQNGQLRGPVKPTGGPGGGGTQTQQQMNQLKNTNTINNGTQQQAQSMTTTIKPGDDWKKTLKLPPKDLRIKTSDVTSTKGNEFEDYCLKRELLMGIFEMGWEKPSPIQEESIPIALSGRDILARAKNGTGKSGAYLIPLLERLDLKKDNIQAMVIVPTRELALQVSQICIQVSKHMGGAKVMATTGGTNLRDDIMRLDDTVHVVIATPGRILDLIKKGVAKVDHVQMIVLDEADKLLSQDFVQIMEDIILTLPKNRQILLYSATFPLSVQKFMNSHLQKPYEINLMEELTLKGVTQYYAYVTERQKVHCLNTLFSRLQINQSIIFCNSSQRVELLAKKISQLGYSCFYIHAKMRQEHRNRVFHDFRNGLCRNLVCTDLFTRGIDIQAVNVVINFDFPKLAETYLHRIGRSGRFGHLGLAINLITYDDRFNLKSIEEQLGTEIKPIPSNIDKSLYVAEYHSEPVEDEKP
UniProt Q9NUU7: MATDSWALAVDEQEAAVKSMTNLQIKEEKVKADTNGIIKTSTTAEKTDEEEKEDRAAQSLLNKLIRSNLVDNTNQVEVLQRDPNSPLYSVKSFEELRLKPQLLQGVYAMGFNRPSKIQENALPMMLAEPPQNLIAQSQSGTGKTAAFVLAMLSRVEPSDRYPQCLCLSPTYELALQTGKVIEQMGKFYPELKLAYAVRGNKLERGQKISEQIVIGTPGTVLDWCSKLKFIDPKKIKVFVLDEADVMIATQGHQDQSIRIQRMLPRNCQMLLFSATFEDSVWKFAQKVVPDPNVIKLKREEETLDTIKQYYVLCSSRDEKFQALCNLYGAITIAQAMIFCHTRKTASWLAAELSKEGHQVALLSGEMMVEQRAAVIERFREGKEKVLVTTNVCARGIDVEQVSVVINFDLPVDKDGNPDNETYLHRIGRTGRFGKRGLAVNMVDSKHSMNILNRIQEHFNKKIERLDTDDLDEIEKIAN
UniProt P36957: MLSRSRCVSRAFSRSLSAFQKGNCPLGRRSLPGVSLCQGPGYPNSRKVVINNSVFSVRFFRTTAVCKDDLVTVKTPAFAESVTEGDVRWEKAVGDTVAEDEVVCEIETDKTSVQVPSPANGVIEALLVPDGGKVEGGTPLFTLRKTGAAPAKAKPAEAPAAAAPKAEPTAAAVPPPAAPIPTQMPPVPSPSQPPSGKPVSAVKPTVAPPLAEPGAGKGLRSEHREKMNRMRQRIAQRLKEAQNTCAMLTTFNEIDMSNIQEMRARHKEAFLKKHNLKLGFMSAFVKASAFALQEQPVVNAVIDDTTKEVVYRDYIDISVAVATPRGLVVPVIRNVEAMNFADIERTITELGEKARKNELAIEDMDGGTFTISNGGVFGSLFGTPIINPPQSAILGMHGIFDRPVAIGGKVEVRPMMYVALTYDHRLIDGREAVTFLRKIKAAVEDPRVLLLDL
UniProt P98153: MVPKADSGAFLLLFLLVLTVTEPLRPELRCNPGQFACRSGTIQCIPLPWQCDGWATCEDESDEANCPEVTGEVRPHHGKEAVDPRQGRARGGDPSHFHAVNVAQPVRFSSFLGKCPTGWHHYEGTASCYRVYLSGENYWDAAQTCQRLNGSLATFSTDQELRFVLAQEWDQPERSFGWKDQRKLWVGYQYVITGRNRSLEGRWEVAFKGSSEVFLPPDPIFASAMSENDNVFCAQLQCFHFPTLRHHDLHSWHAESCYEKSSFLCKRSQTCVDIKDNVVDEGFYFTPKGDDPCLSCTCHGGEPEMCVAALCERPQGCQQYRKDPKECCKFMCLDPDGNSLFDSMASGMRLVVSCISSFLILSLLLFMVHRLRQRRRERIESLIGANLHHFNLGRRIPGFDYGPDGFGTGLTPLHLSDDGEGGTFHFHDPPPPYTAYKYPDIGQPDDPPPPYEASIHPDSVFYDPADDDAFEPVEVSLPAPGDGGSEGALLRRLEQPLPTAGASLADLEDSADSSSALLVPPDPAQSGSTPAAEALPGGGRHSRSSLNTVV
UniProt Q8IYB7: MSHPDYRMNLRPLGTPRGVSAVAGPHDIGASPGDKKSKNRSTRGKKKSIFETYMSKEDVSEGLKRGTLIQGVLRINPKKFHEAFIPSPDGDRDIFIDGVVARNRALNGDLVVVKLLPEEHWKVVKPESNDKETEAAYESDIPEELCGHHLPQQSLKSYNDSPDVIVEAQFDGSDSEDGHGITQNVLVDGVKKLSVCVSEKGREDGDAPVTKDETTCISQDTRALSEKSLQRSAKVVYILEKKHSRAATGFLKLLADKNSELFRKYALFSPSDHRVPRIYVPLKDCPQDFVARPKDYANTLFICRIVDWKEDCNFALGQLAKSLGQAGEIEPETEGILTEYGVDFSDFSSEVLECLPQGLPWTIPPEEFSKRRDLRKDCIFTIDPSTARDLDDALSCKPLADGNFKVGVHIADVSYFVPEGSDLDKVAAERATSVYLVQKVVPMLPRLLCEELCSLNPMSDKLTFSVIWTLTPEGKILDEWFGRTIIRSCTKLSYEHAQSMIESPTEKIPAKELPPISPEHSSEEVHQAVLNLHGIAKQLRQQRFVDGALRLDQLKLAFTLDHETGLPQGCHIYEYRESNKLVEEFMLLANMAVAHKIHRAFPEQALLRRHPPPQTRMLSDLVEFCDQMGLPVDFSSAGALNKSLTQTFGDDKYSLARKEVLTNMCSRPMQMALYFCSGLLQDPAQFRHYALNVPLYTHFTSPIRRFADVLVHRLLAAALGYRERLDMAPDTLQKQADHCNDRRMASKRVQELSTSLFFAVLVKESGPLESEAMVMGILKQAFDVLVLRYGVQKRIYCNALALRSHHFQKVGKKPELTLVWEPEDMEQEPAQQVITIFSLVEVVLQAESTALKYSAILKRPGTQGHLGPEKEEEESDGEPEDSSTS
UniProt Q16698: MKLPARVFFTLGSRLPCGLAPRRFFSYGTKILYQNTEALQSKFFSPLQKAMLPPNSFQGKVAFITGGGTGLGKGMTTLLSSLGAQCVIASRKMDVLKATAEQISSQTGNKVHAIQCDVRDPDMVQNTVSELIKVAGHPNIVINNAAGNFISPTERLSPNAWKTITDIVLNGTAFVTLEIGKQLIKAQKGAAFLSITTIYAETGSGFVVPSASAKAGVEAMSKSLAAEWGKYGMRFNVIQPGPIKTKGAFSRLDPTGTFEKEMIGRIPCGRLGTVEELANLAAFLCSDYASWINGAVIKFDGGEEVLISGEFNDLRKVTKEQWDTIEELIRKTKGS
UniProt Q9Y315: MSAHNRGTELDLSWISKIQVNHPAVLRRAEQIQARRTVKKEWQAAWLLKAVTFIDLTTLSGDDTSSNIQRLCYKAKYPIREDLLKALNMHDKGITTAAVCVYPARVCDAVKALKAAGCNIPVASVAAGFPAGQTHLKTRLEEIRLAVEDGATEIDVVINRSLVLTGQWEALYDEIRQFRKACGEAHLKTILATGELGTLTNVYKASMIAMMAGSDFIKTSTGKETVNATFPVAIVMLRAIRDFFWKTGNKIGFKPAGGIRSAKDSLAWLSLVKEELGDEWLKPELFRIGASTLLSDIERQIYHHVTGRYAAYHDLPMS
UniProt Q9Y394: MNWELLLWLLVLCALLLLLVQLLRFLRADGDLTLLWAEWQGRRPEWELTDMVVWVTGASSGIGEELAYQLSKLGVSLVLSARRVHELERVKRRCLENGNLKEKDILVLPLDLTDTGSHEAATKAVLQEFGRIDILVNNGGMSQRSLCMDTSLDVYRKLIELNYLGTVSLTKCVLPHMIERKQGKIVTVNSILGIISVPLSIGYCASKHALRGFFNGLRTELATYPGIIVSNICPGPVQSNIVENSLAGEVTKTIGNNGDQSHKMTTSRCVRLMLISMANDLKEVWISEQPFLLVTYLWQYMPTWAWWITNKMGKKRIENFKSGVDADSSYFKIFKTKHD
UniProt Q7L2E3: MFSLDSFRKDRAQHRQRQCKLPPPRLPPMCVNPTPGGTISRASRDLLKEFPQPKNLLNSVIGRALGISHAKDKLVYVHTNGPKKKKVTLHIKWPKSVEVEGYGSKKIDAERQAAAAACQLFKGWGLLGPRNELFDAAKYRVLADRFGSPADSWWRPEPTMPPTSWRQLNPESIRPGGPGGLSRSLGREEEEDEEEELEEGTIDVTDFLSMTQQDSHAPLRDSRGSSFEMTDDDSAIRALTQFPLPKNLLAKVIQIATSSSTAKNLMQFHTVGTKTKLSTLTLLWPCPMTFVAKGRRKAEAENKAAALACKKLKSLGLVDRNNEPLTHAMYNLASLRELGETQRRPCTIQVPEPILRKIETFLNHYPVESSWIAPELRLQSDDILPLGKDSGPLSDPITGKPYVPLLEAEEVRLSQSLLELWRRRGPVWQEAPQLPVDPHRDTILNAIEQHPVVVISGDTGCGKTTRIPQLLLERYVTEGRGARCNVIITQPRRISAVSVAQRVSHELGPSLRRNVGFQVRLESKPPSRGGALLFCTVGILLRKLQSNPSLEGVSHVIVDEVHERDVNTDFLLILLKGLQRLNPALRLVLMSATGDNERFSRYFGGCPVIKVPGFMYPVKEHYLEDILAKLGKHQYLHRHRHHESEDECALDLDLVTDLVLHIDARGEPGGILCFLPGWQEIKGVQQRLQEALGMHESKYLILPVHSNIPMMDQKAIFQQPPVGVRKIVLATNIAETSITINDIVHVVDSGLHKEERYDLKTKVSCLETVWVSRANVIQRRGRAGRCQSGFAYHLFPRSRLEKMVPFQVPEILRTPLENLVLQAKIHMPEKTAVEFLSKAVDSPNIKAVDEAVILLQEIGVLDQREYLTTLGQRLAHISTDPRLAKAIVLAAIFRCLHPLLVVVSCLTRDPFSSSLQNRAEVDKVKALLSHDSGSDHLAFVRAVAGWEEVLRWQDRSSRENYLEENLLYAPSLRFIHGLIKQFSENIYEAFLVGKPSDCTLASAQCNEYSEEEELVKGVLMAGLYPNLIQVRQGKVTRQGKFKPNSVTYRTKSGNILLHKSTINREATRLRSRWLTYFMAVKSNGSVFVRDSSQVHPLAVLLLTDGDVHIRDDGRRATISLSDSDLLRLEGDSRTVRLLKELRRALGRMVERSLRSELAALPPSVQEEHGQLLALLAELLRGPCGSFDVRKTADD
UniProt O75064: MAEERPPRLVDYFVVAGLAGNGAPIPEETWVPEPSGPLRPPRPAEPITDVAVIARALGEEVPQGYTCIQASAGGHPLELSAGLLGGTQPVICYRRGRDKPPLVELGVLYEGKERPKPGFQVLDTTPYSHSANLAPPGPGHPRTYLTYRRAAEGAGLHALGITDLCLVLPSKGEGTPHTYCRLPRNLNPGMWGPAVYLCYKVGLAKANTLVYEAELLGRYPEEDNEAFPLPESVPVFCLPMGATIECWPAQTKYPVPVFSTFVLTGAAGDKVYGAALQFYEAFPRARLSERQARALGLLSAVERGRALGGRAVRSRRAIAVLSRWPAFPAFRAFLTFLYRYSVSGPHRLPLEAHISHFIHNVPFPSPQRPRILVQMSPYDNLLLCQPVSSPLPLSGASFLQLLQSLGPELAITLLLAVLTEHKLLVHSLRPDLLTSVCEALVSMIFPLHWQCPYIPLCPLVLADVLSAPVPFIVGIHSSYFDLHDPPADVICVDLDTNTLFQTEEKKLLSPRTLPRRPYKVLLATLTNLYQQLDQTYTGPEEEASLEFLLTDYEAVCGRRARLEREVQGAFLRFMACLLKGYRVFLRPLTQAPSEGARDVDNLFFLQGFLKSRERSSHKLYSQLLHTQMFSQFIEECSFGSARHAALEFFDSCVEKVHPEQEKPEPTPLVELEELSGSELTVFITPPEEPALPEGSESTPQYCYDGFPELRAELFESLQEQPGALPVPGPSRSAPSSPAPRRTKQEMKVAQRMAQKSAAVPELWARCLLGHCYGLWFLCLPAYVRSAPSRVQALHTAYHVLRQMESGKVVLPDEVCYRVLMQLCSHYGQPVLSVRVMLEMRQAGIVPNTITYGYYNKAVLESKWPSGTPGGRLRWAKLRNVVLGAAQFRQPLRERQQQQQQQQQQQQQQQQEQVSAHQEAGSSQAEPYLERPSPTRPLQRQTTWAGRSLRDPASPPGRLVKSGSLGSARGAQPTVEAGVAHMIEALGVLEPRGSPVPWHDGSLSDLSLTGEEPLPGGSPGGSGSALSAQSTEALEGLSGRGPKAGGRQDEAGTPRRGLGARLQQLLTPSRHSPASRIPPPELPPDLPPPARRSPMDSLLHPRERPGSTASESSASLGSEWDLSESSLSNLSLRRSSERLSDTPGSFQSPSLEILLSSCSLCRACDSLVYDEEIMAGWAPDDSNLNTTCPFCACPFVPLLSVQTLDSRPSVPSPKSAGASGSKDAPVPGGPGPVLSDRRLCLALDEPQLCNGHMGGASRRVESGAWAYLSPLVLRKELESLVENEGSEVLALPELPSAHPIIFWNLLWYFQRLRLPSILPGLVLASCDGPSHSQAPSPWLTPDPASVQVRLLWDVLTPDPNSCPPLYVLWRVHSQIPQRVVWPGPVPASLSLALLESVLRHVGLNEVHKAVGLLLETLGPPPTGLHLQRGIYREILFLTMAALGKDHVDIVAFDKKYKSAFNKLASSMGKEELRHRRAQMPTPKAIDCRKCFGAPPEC

Key:
Test in all cases: log2 fold change, soluble protein after heating vs DMSO (PISA); higher = thermal stabilisation; K562 cells, 10 uM, 30 min; active = over 0.2 and 3.5 SD of the protein, either way, in both replicates (recomputed)
[1] = compound: CS(=O)(=O)c1ccc(-c2cnc(N)c(C(=O)Nc3ccccc3)n2)cc1
In short: (§1)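 K562 cells at 2×10^6 cells/mL were given 10 μM compound for 30 min. Aliquots then went through 3 min of heating across 48°C-58°C, were pooled, and were extracted in PBS with 0.5% NP-40 at 4°C, and the supernatant after 21,000xg for 90 min was quantified by TMTpro 16plex LC-MS/MS with channel sums equalised. Thermal stability relative to control samples, from duplicates, is given as log2 fold change.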

[2] = compound: C[C@@H](Oc1cc(-c2cnn(C3CCNCC3)c2)cnc1N)c1c(Cl)ccc(F)c1Cl [crizotinib]
In short: as §1

[3] = compound: C[C@@H]1COCCN1C2=NC(=NC(=C2)C3(CC3)S(=O)(=O)C)C4=C5C=CNC5=CC=C4
In short: as §1

[4] = compound: C[C@H](C1=CC=C(C=C1)C(=O)NC2=C3C=CNC3=NC=C2)N
In short: as §1

[5] = compound: C[C@H](Nc1ncnc2nc[nH]c12)c1cc2cccc(Cl)c2c(=O)n1-c1ccccc1 [duvelisib]
In short: as §1

[6] = compound: Cc1cc(Nc2cc(CN3CCOCC3)c3nc(C)c(Cc4ccc(Cl)cc4F)n3n2)n[nH]1 [gandotinib]
In short: as §1

[7] = compound: Cc1cc(Nc2cc(N3CCN(C)CC3)nc(Sc3ccc(NC(=O)C4CC4)cc3)n2)n[nH]1 [tozasertib]
In short: as §1

[8] = compound: Cc1cc(SCc2sc(-c3ccc(C(F)(F)F)cc3)nc2C)ccc1OCC(=O)O
In short: as §1

[9] = compound: Cc1ccc(-n2nc(C(C)(C)C)cc2NC(=O)Nc2ccc(OCCN3CCOCC3)c3ccccc23)cc1 [doramapimod]
In short: as §1

[10] = compound: Cc1ccc(C(=O)N(CCCN)[C@@H](c2nc3cc(Cl)ccc3c(=O)n2Cc2ccccc2)C(C)C)cc1 [ispinesib]
In short: as §1

[11] = compound: Cc1ccc(NC(=O)c2ccc(CN3CC[C@H](N(C)C)C3)c(C(F)(F)F)c2)cc1Nc1nccc(-c2cncnc2)n1 [bafetinib]
In short: as §1

[12] = compound: Cc1cccc(CC(=O)N2CCc3c2ccc(-c2cn(C)c4ncnc(N)c24)c3F)n1
In short: as §1

[13] = compound: Cc1cn(-c2cc(NC(=O)c3ccc(C)c(Nc4nccc(-c5cccnc5)n4)c3)cc(C(F)(F)F)c2)cn1 [nilotinib]
In short: as §1

[14] = compound: Cc1nc(Nc2n[nH]c3c2CN(C(=O)N[C@H](CN(C)C)c2ccccc2)C3(C)C)c2sccc2n1
In short: as §1

[15] = compound: Cc1nc(Nc2ncc(C(=O)Nc3c(C)cccc3Cl)s2)cc(N2CCN(CCO)CC2)n1 [dasatinib]
In short: as §1

[16] = compound: Cc1ncc(-c2ccnc(Nc3ccc(S(C)(=O)=O)cc3)n2)n1C(C)C
In short: as §1

[17] = compound: Cn1cc(-c2ccc3c(c2)CCN3C(=O)Cc2cccc(C(F)(F)F)c2)c2c(N)ncnc21
In short: as §1

[18] = compound: Cn1cc(-c2ccc3nnc(C(F)(F)c4ccc5ncccc5c4)n3n2)cn1
In short: as §1

[19] = compound: Cn1cncc1[C@@](N)(c1ccc(Cl)cc1)c1ccc2c(c1)c(-c1cccc(Cl)c1)cc(=O)n2C [tipifarnib]
In short: as §1

[20] = compound: FC(F)(F)c1ccc(/C=C/c2nc(COc3ccc(CCCCn4ccnn4)cc3)co2)cc1 [mubritinib]
In short: as §1

Measured: log2 fold change

DDX6 (UniProt P26196)
inactive: [1] 0.055 | [2] -0.035 | [3] -0.076 | [4] 0.017 | [5] -0.023 | [6] 0 | [7] -0.003 | [8] 0.051 | [9] 0.014 | [10] -0.011 | [11] 0.056 | [12] 0.017 | [13] 0.004 | [14] 0.022 | [15] -0.071 | [16] -0.016 | [17] -0.001 | [18] -0.035 | [19] -0.041 | [20] 0.026

DIS3 (UniProt Q9Y2L1)
inactive: [1] 0.021 | [2] -0.048 | [3] 0.121 | [4] -0.053 | [5] 0.059 | [6] -0.069 | [7] 0.057 | [8] 0.139 | [9] -0.049 | [10] -0.051 | [11] -0.032 | [12] 0.096 | [13] -0.105 | [14] -0.104 | [15] -0.215 | [16] -0.016 | [17] 0.077 | [18] 0.106 | [19] -0.099 | [20] 0.062

DDX19A (UniProt Q9NUU7)
inactive: [1] 0.035 | [2] -0.018 | [3] 0.044 | [4] -0.082 | [5] -0.009 | [6] 0.032 | [7] 0.01 | [8] -0.029 | [9] -0.026 | [10] 0.014 | [11] -0.102 | [12] -0.048 | [13] -0.082 | [14] -0.099 | [15] -0.09 | [16] -0.004 | [17] 0.048 | [18] 0.003 | [19] -0.093 | [20] -0.113

DLST (UniProt P36957)
inactive: [1] 0.017 | [2] 0.011 | [3] -0.117 | [4] 0.054 | [5] -0.048 | [6] 0.061 | [7] -0.036 | [8] -0.021 | [9] 0.018 | [10] -0.032 | [11] 0.048 | [12] -0.042 | [13] 0.019 | [14] 0.067 | [15] 0.102 | [16] -0.035 | [17] -0.049 | [18] 0.016 | [19] 0.106 | [20] -0.06

DGCR2 (UniProt P98153)
inactive: [1] 0.03 | [2] -0.014 | [3] -0.025 | [4] 0.067 | [5] 0.062 | [6] 0.085 | [7] -0.045 | [8] -0.093 | [9] 0.049 | [10] 0.039 | [11] -0.156 | [12] -0.017 | [13] -0.021 | [14] -0.013 | [15] 0.069 | [16] 0.069 | [17] -0.006 | [18] -0.157 | [19] -0.008 | [20] -0.043

DHX57 (UniProt Q6P158)
inactive: [1] -0.027 | [2] -0.001 | [3] -0.209 | [4] 0.207 | [5] -0.071 | [6] 0.094 | [7] 0.072 | [8] 0.056 | [9] 0.155 | [10] -0.04 | [11] 0.105 | [12] 0.058 | [13] -0.039 | [14] -0.017 | [15] 0.021 | [16] 0.029 | [17] -0.164 | [18] -0.124 | [19] 0.037 | [20] -0.039

DIS3L2 (UniProt Q8IYB7)
inactive: [1] -0.017 | [2] 0.096 | [3] -0.018 | [4] 0.116 | [5] -0.079 | [6] 0.048 | [7] -0.009 | [8] 0.018 | [9] 0.052 | [10] -0.009 | [11] -0.03 | [12] -0.031 | [13] -0.014 | [14] 0.09 | [15] 0.035 | [16] -0.037 | [17] 0.041 | [18] -0.054 | [19] 0.057 | [20] 0.068

DMD (UniProt P11532)
inactive: [1] -0.024 | [2] 0.004 | [3] 0.012 | [4] 0.023 | [5] 0.014 | [6] -0.054 | [7] 0 | [8] 0.024 | [9] -0.001 | [10] -0.002 | [11] -0.048 | [12] 0.013 | [13] -0.025 | [14] -0.08 | [15] -0.033 | [16] -0.019 | [17] 0.026 | [18] -0.028 | [19] -0.009 | [20] 0.075

DENND1C (UniProt Q8IV53)
inactive: [1] -0.033

DECR1 (UniProt Q16698)
inactive: [1] 0.002 | [2] 0.032 | [3] 0.027 | [4] -0.068 | [5] 0.045 | [6] -0.03 | [7] 0.014 | [8] -0.006 | [9] -0.012 | [10] 0.042 | [11] 0.009 | [12] 0.106 | [13] 0.019 | [14] -0.01 | [15] -0.018 | [16] -0.007 | [17] 0.035 | [18] -0.008 | [19] -0.061 | [20] 0.022

2 successive records out of the list so far:
DIS3L2 (UniProt Q8IYB7)
inactive: [1] -0.017 | [2] 0.096 | [3] -0.018 | [4] 0.116 | [5] -0.079 | [6] 0.048 | [7] -0.009 | [8] 0.018 | [9] 0.052 | [10] -0.009 | [11] -0.03 | [12] -0.031 | [13] -0.014 | [14] 0.09 | [15] 0.035 | [16] -0.037 | [17] 0.041 | [18] -0.054 | [19] 0.057 | [20] 0.068

DMD (UniProt P11532)
inactive: [1] -0.024 | [2] 0.004 | [3] 0.012 | [4] 0.023 | [5] 0.014 | [6] -0.054 | [7] 0 | [8] 0.024 | [9] -0.001 | [10] -0.002 | [11] -0.048 | [12] 0.013 | [13] -0.025 | [14] -0.08 | [15] -0.033 | [16] -0.019 | [17] 0.026 | [18] -0.028 | [19] -0.009 | [20] 0.075

Next records.

DERA (UniProt Q9Y315)
inactive: [1] -0.001 | [2] 0.05 | [3] 0.052 | [4] 0.009 | [5] 0.041 | [6] 0.049 | [7] -0.06 | [8] -0.025 | [9] 0.007 | [10] 0.03 | [11] -0.028 | [12] 0.005 | [13] -0.007 | [14] 0.026 | [15] -0.02 | [16] 0.013 | [17] 0.05 | [18] 0.003 | [19] -0.005 | [20] 0.019

DHRS7 (UniProt Q9Y394)
inactive: [1] -0.024 | [2] 0.036 | [3] -0.027 | [4] -0.037 | [5] 0.03 | [6] 0.068 | [7] -0.051 | [8] -0.025 | [9] 0.011 | [10] 0.075 | [11] -0.03 | [12] -0.02 | [13] -0.017 | [14] 0.009 | [15] 0.032 | [16] 0.025 | [17] -0.002 | [18] 0.023 | [19] 0.051 | [20] 0.01

DDX3X (UniProt O00571)
inactive: [1] 0.17 | [2] -0.167 | [3] -0.709 | [4] 0.568 | [5] -0.212 | [6] 0.281 | [7] -0.171 | [8] 0.111 | [9] 0.41 | [10] -0.496 | [11] 0.259 | [12] -0.006 | [13] -0.152 | [14] -0.264 | [15] 0.024 | [16] -0.053 | [17] -0.306 | [18] -0.421 | [19] 0.115 | [20] -0.297

DNAJA1 (UniProt P31689)
inactive: [1] 0.01 | [2] 0.005 | [3] -0.022 | [4] -0.028 | [5] 0.012 | [6] -0.016 | [7] -0.007 | [8] -0.026 | [9] -0.022 | [10] 0.033 | [11] -0.072 | [12] 0.002 | [13] -0.082 | [14] -0.046 | [15] 0.017 | [16] -0.016 | [17] -0.001 | [18] -0.032 | [19] 0.023 | [20] 0.03

DHX9 (UniProt Q08211)
inactive: [1] -0.079 | [2] -0.054 | [3] -0.289 | [4] 0.21 | [5] -0.088 | [6] 0.061 | [7] 0.062 | [8] 0.037 | [9] 0.074 | [10] 0.019 | [11] 0.102 | [12] 0.007 | [13] -0.072 | [14] 0.098 | [15] 0.145 | [16] 0.28 | [17] -0.295 | [18] -0.12 | [19] 0.058 | [20] -0.13

DHX30 isoform 2 (UniProt Q7L2E3)
inactive: [1] -0.07 | [2] -0.07 | [3] -0.264 | [4] 0.316 | [5] -0.138 | [6] 0.131 | [7] -0.02 | [8] 0.063 | [9] 0.055 | [10] -0.258 | [11] 0.066 | [12] 0.018 | [13] -0.026 | [14] -0.13 | [15] 0.02 | [16] 0.105 | [17] -0.182 | [18] -0.097 | [19] 0.032 | [20] -0.091

DENND4B (UniProt O75064)
inactive: [1] 0.045 | [2] -0.016 | [3] -0.074 | [4] 0.093 | [5] -0.031 | [6] -0.055 | [7] -0.068 | [8] 0.02 | [9] 0.088 | [10] -0.012 | [11] -0.228 | [12] 0.043 | [13] 0.028 | [14] -0.021 | [15] -0.074 | [16] -0.043 | [17] 0.007 | [18] 0.032 | [19] 0.05 | [20] -0.039
